Measured values as given in patent US20130288373A1 (published 2013).
Results are given in words; binding and its absence hold for the method and conditions named. Some binding calls cover weakened binding; strength is not graded here. Where a sequence is shown, tags or fusion partners need not be part of it.

Key:
[1] = molecular target: T1, Flt3D1-D4, recombinant human Flt3 ectodomain variant (residues 27-434) with C-terminal hexahistidine tag (human) (UniProt P36888); test: crystal structure of the Flt3D1-D4:FL complex
T1 sequence (chain, N-linked glycosylation (glycosylated protein from HEK293 cells)): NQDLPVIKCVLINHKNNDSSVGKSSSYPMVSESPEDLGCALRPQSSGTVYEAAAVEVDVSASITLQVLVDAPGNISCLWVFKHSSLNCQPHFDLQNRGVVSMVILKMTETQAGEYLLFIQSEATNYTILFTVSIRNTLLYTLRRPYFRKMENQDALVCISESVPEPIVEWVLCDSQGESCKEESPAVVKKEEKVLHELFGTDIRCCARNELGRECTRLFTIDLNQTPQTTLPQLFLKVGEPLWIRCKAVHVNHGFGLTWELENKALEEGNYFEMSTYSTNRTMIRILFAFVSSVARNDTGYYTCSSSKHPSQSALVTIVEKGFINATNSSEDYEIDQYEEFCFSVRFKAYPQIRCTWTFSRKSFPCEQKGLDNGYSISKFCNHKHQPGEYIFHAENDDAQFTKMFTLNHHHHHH

[2] = molecular target: T1, Flt3D1-D4, recombinant human Flt3 ectodomain variant (residues 27-434) with C-terminal hexahistidine tag (human); test: size-exclusion chromatography (Absorbance280 against elution volume) with Coomassie-stained SDS-PAGE of the peak fraction
[3] = molecular target: T1, Flt3D1-D4, recombinant human Flt3 ectodomain variant (residues 27-434) with C-terminal hexahistidine tag (human); test: analytical and preparative size-exclusion chromatography
[4] = molecular target: T2, Flt3D1-D3, recombinant human Flt3 ectodomain variant (residues 27-346) with C-terminal hexahistidine tag (human) (UniProt P36888); test: as above
T2 sequence (chain, N-linked glycosylation (glycosylated protein from HEK293 cells)): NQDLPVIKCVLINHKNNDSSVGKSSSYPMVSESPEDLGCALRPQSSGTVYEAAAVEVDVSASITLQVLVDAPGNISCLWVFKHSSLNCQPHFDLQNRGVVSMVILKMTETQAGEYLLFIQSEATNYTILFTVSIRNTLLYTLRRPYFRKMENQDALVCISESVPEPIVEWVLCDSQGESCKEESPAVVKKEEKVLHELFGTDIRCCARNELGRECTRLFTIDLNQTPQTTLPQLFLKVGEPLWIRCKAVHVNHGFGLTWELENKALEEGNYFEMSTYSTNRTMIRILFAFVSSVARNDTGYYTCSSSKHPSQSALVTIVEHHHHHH

[5] = molecular target: T1, Flt3D1-D4, recombinant human Flt3 ectodomain variant (residues 27-434) with C-terminal hexahistidine tag (human); test: size-exclusion chromatography, shift to a single faster migrating peak
[6] = molecular target: T1, Flt3D1-D4, recombinant human Flt3 ectodomain variant (residues 27-434) with C-terminal hexahistidine tag (human); test: ITC
[7] = molecular target: T2, Flt3D1-D3, recombinant human Flt3 ectodomain variant (residues 27-346) with C-terminal hexahistidine tag (human); test: ITC
[8] = molecular target: T2, Flt3D1-D3, recombinant human Flt3 ectodomain variant (residues 27-346) with C-terminal hexahistidine tag (human); test: size-exclusion chromatography of the mixture at the end of an ITC experiment (Absorbance280 against elution volume) with Coomassie-stained SDS-PAGE

Measured: binding

B1: recombinant human FL (fms-like tyrosine kinase receptor-3 ligand) produced in E. coli (ligand)
chain: TQDCSFQHSPISSDFAVKIRELSDYLLQDYPVTVASNLQDEELCGGLWRLVLAQRWMERLKTVAGSKMQGLLERVNTEIHFVTKCAFQPPPSCLRFVQTNISRLLQETSEQLVALKPWITRQNFSRCLELQCQP
notes: Dimeric cytokine; also called Flt3 ligand; cognate ligand
binds: all assays above
